From patent US12589161B2, “PEGylated synthetic KL4 peptide, compositions and methods thereof” (THE UNIVERSITY OF HONG KONG, priority 2019, dated 2026)
Some entries share one result that the patent states for a list of compounds. Non-standard residues stand in square brackets, D forms with d. Residues, ends and D or L forms follow the SMILES beside them. PEG24 = NCCOCCOCCOCCOCCOCCOCCOCCOCCOCCOCCOCCOCCOCCOCCOCCOCCOCCOCCOCCOCCOCCOCCOCCOCCC(=O)O; PEG12 = NCCOCCOCCOCCOCCOCCOCCOCCOCCOCCOCCOCCOCCC(=O)O

Test system: A549 cells
Assay: Cellular uptake of siRNA by flow cytometry on A549 cells
Format: cell-based, human
Settings: A549, 10:1 ratio, fluorescently labelled siRNA, 4 h
Experimental: Flow cytometry was used to investigate the cellular uptake of peptide/siRNA complexes. A549 cells and Calu-3 cells were seeded in six-well plates at a density of 2.5×10^5 cells and 4×10^5 cells per well, respectively, one day before the experiment. The cells were transfected with peptide/siRNA complexes at 10:1 ratio (w/w) containing fluorescently labelled siRNA (150 nM) in Opti-MEM I reduced serum medium. The transfection medium was removed after 4 h of incubation, and the cells were washed with PBS once. The cells were trypsinized by 0.25% (w/v) trypsin-EDTA and suspended in culture medium. The extracellular fluorescence signal was quenched with 0.04% (w/v) trypan blue solution. After 2 min of incubation, the cells were washed with PBS thrice. The cells were resuspended in 500 μL of PBS and sieved with a sterile 40 μm cell strainer (BD Biosciences, CA, USA). The fluorescence intensity was analyzed by flow cytometry with PE/PI laser (585/42 nm) (BD FACSCantoII Analyzer, BD Biosciences, CA, USA). At least 10,000 single cells were analyzed for each sample.

Row | SMILES | percentage of cells with siRNA uptake
1 | CC(C)C[C@H](NC(=O)[C@H](CC(C)C)NC(=O)[C@H](CC(C)C)NC(=O)[C@H](CC(C)C)NC(=O)[C@H](CCCCN)NC(=O)[C@H](CC(C)C)NC(=O)[C@H](CC(C)C)NC(=O)[C@H](CC(C)C)NC(=O)[C@H](CC(C)C)NC(=O)[C@H](CCCCN)NC(=O)[C@H](CC(C)C)NC(=O)[C@H](CC(C)C)NC(=O)[C@H](CC(C)C)NC(=O)[C@H](CC(C)C)NC(=O)[C@H](CCCCN)NC(=O)[C@H](CC(C)C)NC(=O)[C@H](CC(C)C)NC(=O)[C@H](CC(C)C)NC(=O)[C@H](CC(C)C)NC(=O)[C@H](CCCCN)NC(=O)CCOCCOCCOCCOCCOCCOCCOCCOCCOCCOCCOCCOCCN)C(=O)N[C@@H](CCCCN)C(N)=O [PEG12KL4] (H-[PEG12]KLLLLKLLLLKLLLLKLLLLK-NH2; N-terminus assumed) | over 90%
2 | CC(C)C[C@H](NC(=O)[C@H](CC(C)C)NC(=O)[C@H](CC(C)C)NC(=O)[C@H](CC(C)C)NC(=O)[C@H](CCCCN)NC(=O)[C@H](CC(C)C)NC(=O)[C@H](CC(C)C)NC(=O)[C@H](CC(C)C)NC(=O)[C@H](CC(C)C)NC(=O)[C@H](CCCCN)NC(=O)[C@H](CC(C)C)NC(=O)[C@H](CC(C)C)NC(=O)[C@H](CC(C)C)NC(=O)[C@H](CC(C)C)NC(=O)[C@H](CCCCN)NC(=O)[C@H](CC(C)C)NC(=O)[C@H](CC(C)C)NC(=O)[C@H](CC(C)C)NC(=O)[C@H](CC(C)C)NC(=O)[C@H](CCCCN)NC(=O)CCOCCOCCOCCOCCOCCOCCOCCOCCOCCOCCOCCOCCOCCOCCOCCOCCOCCOCCOCCOCCOCCOCCOCCOCCN)C(=O)N[C@@H](CCCCN)C(N)=O [PEG24KL4] (H-[PEG24]KLLLLKLLLLKLLLLKLLLLK-NH2; N-terminus assumed) | over 90%
